The target of assay [1] is Flag-Tcf7l2 (pcDNA3 Flag-tag Tcf7l2) (UniProt Q924A0). Briefly: co-IP; HEK293T cells transfected for 48 h with Flag-Tcf7l2 and β-catenin, Myc-Kaiso (varied amount) or HA-Sox10; precipitated with anti-Tcf7l2 (Fig. 4j) or anti-Flag (Fig. 5g); western blot. For orientation: Immunoblotting shows a protein as a band on a membrane.
For assay [2], the target named is Tcf7l2 (endogenous, Oli-neu cells) (mouse (endogenous in Oli-neu)) (UniProt Q924A0). The experiment in a line: co-IP; Oli-neu cells, endogenous Tcf7l2; cells transfected with 3 μg pCS2-Myc-Kaiso or pcDNA3-HA-Sox10 (competition assay).
The target is the same in assay [3]. Described as above. This is another data set of the same source.
The target in assay [4] is T1, Tcf7l2 (endogenous, Oli-neu cells) (mouse (endogenous in Oli-neu)), Q924A0.
T1 chain: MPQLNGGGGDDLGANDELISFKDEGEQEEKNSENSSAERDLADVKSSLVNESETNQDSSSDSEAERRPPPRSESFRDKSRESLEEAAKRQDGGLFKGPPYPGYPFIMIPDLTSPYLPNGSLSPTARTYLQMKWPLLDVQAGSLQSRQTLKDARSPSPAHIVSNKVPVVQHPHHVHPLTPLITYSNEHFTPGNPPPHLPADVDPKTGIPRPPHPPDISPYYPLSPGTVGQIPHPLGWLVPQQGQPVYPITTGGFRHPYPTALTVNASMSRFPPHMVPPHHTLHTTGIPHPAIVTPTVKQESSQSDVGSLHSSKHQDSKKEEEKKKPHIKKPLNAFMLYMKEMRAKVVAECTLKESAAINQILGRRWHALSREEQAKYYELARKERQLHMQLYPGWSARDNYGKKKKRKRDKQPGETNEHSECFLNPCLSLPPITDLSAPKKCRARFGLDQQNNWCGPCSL
The description is as above. Particulars: remark: other sources report otherwise.

Sequences of proteins named here, by UniProt entry; tags and fusion partners are left off.
UniProt Q04888: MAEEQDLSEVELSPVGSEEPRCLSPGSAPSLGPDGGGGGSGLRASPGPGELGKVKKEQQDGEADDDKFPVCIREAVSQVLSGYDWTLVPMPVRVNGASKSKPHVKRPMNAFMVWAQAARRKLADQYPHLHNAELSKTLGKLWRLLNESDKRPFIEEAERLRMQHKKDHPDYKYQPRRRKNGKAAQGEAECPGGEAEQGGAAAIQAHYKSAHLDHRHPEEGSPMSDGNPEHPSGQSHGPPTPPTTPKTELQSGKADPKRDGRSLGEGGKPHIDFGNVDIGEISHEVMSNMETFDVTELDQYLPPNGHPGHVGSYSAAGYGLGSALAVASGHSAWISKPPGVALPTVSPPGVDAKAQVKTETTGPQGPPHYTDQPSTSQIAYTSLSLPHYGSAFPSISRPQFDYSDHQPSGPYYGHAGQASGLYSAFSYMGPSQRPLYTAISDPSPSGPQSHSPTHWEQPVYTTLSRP

Read-outs that look alike come from different tables or passages of the source. These are yes or no findings as the source states them, for the method shown. Binding seen in cells or lysates may run through a third protein. Some entries that bind do so weakly or less than the wild type. For part of these data: Sequences can lack the tags named with a protein.

Regarding “HA-Sox10 (pcDNA3-HA-Sox10), in HEK293T (from UniProt Q04888 1-466)”, the binding result in assay [1] was “binds”.

Turning to “HA-Sox10 (pcDNA3-HA-Sox10), in Oli-neu cells (from UniProt Q04888 1-466)”, the binding result in assay [2] is “binds”.

B1: Myc-Kaiso (pCS2-Myc-tag Kaiso), in HEK293T (protein, UniProt Q8BN78 1-671)
chain: MESRKLISATDIQYSASLLNSLNEQRGHGLFCDVTVIVEDRKFRAHRNILSASSTYFHQLFSVAGQVVELSFIRAEIFAEILNYIYSSKVVRVRADLLDELIKSGQLLGVKFIAELGVPLSQVKSISGTEQDGTAETLPSSSSDKSLDMEKSKDEAQDNGATVMPIITESFSLSAEDNEMKKIIVTDSDDDDDDDVIFCSEILPAKEDLPSNNTATQVQPNPASVAISEVTPCASNNSPPVTNITPTQLPTPVNQATLSQTQGSEELLVSSASTHLTPNIILLNQAPLTAPPSASSSLPNHMSSSVNVLVQNQQTPNSAVLTGNKAEEEEEIIDDDDDIISSSPDSAVSNTSLVPQADNSKSTTLDGSLTQKMQIPVLPQEPPSNSLKISDVITRNTNDPGLRSKHVMEGQKIITLDTATEIEGLSTGCKVYANIGEDTYDIVIPVKDDPDGGEAKLDNELPKTSGSEPPNKRMKVKHDDHYELIVDGRVYYICIVCKRSYVCLTSLRRHFNIHSWEKKYQCRYCDKVFPLAEYRTKHEIHHTGERRYQCLTCGKSFINYQFMSSHIKSVHSQDPSGDSKLYRLHPCKSLQIRQYAYLSNKSSAMPVMKDDAVGYKVDAGKEPPVGTTSTPPQNKSTFWEDIFIQQENDSIFKQNVTDGSTEFEFIIPESY
For the molecule B1, in assay [1], the binding result is listed as “binds”.

B2: Myc-Kaiso (pCS2-Myc-Kaiso), in Oli-neu cells (protein, UniProt Q8BN78 1-671)
chain: B1 chain
Regarding B2, in assay [3], the binding entry is given as “binds”.

B3: Kaiso in Oli-neu cells (cells overexpressing Sox10) (protein, UniProt Q8BN78 1-671)
chain: B1 chain
As for B3, the binding entry in assay [3] is listed as “binds”.

B4: β-catenin (endogenous, Oli-neu cells), Q02248 1-781 (protein)
chain: MATQADLMELDMAMEPDRKAAVSHWQQQSYLDSGIHSGATTTAPSLSGKGNPEEEDVDTSQVLYEWEQGFSQSFTQEQVADIDGQYAMTRAQRVRAAMFPETLDEGMQIPSTQFDAAHPTNVQRLAEPSQMLKHAVVNLINYQDDAELATRAIPELTKLLNDEDQVVVNKAAVMVHQLSKKEASRHAIMRSPQMVSAIVRTMQNTNDVETARCTAGTLHNLSHHREGLLAIFKSGGIPALVKMLGSPVDSVLFYAITTLHNLLLHQEGAKMAVRLAGGLQKMVALLNKTNVKFLAITTDCLQILAYGNQESKLIILASGGPQALVNIMRTYTYEKLLWTTSRVLKVLSVCSSNKPAIVEAGGMQALGLHLTDPSQRLVQNCLWTLRNLSDAATKQEGMEGLLGTLVQLLGSDDINVVTCAAGILSNLTCNNYKNKMMVCQVGGIEALVRTVLRAGDREDITEPAICALRHLTSRHQEAEMAQNAVRLHYGLPVVVKLLHPPSHWPLIKATVGLIRNLALCPANHAPLREQGAIPRLVQLLVRAHQDTQRRTSMGGTQQQFVEGVRMEEIVEGCTGALHILARDVHNRIVIRGLNTIPLFVQLLYSPIENIQRVAAGVLCELAQDKEAAEAIEAEGATAPLTELLHSRNEGVATYAAAVLFRMSEDKPQDYKKRLSVELTSSLFRTEPMAWNETADLGLDIGAQGEALGYRQDDPSYRSFHSGGYGQDALGMDPMMEHEMGGHHPGADYPVDGLPDLGHAQDLMDGLPPGDSNQLAWFDTDL
For B4, the binding entry in assay [4] is recorded as “binds”.

For the origin of these results see PMC4786870.
